Measurements: EP4847498A1, “PRODRUG COMPOUND ACTIVATED BY FIBROBLAST ACTIVATION PROTEIN” (dated 2026)

Amino acid sequences for entries named in this document (tags omitted). Residues count along the entry.
UniProt Q12884, whole entry: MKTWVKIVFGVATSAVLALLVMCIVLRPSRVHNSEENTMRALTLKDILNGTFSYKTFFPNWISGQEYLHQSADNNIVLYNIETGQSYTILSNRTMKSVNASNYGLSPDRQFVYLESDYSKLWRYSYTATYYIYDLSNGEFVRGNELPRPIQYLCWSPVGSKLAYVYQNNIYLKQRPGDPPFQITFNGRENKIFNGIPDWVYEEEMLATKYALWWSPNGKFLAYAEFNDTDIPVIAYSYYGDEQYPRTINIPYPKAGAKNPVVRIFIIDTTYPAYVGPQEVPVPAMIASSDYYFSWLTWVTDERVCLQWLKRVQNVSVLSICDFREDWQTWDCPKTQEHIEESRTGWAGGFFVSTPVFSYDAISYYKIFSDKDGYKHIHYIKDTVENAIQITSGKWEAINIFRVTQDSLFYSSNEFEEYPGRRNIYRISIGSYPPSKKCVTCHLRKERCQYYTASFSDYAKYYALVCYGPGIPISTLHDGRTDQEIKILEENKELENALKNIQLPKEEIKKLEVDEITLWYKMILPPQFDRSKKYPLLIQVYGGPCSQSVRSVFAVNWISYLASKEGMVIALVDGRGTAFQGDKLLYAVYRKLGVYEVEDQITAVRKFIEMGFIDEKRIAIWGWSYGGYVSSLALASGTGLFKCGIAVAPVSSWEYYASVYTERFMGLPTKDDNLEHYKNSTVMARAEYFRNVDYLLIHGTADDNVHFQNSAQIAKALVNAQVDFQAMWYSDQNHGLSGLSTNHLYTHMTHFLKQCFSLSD
UniProt P16234, 24-1089 limits assumed: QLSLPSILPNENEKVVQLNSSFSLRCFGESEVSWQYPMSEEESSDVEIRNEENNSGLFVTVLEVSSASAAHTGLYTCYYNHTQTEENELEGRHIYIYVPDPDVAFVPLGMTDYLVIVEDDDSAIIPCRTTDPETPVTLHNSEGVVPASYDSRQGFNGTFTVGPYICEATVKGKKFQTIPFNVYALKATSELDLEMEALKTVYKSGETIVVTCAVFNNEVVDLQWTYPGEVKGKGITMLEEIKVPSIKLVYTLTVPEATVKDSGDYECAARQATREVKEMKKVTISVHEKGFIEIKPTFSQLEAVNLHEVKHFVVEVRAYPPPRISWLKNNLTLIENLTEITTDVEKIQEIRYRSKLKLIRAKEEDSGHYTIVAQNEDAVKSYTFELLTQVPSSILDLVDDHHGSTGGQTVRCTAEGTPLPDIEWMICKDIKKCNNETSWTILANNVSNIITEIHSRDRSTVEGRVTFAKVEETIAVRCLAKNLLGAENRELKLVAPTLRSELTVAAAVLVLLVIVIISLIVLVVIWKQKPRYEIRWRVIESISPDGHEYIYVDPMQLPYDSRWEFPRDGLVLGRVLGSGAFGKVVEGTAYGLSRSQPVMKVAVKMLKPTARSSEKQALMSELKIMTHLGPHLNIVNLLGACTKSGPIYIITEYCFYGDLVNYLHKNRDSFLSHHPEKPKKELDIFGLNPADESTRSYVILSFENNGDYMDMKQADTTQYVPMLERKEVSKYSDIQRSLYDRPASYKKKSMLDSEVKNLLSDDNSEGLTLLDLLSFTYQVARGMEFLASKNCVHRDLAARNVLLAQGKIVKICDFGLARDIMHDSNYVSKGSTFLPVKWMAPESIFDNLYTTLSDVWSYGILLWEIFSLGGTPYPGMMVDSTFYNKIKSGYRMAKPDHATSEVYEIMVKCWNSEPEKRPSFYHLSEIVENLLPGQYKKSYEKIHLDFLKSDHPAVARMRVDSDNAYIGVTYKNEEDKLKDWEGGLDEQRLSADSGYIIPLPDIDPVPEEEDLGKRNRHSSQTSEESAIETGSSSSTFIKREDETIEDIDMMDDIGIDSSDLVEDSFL
UniProt P17948, 27-1338 limits assumed: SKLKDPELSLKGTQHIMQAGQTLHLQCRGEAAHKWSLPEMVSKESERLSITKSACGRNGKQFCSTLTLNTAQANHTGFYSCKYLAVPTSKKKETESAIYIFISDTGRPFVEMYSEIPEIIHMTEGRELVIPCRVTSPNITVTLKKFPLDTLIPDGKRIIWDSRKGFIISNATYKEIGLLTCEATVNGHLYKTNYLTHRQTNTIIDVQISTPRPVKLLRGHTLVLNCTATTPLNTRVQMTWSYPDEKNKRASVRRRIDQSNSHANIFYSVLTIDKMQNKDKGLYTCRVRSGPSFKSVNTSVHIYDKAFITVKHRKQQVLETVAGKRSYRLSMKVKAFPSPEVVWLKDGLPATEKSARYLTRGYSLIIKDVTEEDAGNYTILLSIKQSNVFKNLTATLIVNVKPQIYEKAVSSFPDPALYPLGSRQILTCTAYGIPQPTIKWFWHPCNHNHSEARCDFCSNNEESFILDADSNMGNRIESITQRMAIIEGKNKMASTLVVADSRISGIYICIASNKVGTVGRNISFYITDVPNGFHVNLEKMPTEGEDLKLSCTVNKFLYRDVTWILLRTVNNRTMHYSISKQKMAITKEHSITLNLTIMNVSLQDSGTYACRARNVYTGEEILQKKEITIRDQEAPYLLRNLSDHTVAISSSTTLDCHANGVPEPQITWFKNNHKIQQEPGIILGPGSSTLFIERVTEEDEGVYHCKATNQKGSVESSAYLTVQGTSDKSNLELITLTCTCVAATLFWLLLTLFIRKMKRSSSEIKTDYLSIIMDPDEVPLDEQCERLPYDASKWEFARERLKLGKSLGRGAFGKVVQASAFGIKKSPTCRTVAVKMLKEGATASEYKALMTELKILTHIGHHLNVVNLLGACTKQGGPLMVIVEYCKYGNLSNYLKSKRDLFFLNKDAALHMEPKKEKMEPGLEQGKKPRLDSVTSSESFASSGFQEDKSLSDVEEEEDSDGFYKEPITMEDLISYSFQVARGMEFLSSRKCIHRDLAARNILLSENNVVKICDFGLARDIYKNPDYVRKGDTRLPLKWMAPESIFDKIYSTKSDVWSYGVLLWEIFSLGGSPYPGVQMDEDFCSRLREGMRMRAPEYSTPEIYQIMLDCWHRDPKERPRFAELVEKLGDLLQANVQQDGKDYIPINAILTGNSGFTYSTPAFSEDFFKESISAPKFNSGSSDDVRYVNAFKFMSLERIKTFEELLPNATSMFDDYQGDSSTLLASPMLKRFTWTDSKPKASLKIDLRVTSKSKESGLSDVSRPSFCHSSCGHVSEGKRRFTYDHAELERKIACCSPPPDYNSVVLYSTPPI
UniProt P11362, 22-822 limits assumed: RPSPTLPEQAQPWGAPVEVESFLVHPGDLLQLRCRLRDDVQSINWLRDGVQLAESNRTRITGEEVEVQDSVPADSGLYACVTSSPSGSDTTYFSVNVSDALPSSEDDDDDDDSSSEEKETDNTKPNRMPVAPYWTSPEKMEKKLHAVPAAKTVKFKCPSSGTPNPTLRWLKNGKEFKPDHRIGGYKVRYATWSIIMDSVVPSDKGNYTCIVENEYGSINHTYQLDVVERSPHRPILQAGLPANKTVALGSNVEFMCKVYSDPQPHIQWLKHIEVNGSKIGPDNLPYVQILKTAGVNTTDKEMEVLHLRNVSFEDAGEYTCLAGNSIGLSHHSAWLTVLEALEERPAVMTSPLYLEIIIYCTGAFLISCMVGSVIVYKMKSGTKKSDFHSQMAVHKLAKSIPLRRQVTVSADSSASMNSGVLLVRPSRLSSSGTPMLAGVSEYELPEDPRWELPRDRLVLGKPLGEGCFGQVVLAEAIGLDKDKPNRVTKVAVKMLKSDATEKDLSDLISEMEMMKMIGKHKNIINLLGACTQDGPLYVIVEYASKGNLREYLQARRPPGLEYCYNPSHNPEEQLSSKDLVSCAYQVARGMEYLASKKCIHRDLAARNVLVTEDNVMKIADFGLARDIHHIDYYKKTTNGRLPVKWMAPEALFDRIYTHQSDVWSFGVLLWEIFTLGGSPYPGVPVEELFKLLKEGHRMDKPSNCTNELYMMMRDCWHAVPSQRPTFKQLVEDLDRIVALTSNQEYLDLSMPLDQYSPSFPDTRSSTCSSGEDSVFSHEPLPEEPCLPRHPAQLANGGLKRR

Tests used:
FAP = FAP (Homo sapiens, UniProt Q12884); experiment: Degradation of FAAP by FAP and release of nintedanib, HPLC and LC/MS; conditions: 100 µM FAAP, 4.45 µg/mL FAP; for FAAP degraded: pH 7.4, 37°C
Method: (§1) To evaluate the degree to which FAAP synthesized in Example 1 above is activated by FAP, 100 µM of FAAP and 4.45 µg/mL of FAP were incubated in a buffer (0.01 M Tris-HCl, pH 7.4, 0.01 M MgCl2, 0.05% Tween-20, distilled water) and <2.5% (v/v) of DMSO at 37°C. Subsequently, samples were collected at different time points, and whether nintenanib would be released by degradation of FAAP was analyzed by HPLC and LC/MS using the instrument's mass detector and UV detector (390 nm). The results are shown in FIGS. 4a and 4b and FIGS. 5a to 5c. Here, the conditions for analysis using the HPLC and LC-MS systems (Agilent) are as follows: • Analysis column: X Terra MS C18 column, 25 Å, 3.5 µm, 2.1 mm x 100 mm; • HPLC and LC-MS conditions: 0-2 min, 20% A/B; 2-15 min, 20-90% A/B; 15-20 min, 90% A/B; 0.25 ml/min flow rate; • As elution buffer, acetonitrile (solvent A) and water (solvent B) are mixed with 0.1% formic acid (v/v).

[1] = Stability of FAAP in buffer in the absence of FAP, HPLC and LC/MS; conditions: buffer pH 7.4, 37°C, without FAP
Method: as §1

U87MG cells = experiment: FAAP activation by intracellular FAP, confocal microscopy of intrinsic nintedanib fluorescence
Method: To evaluate whether FAAP is activated by FAP at the cellular level, a normal group with FAP and a group in which FAP was blocked using oncoFAP were treated with each of nintedanib and FAAP, and the uptake pattern was observed using a confocal microscope. Specifically, cells were seeded into confocal dishes at a density of 2 x 10^5 cells/mL per well, incubated for 24 hours, and then subjected to drug treatment. For drug treatment, the normal group with FAP was treated with 2 µL (10 µM) of each of FAAP and nintedanib. The group in which FAP was blocked was first treated with 10 µL (1 mM) of oncoFAP, shaken from side to side, incubated for 30 minutes, and then treated with 2 µL (10 µM) of FAAP. After drug treatment, shaking was performed using a shaker at 165 rpm for 5 minutes. After incubation in an incubator for 15 minutes, 2 hours, 6 hours, and 10 hours, the cells were washed twice with warm DPBS. The cells were incubated with 1 ml of warm 4% PFA for 15 minutes, washed twice, then fixed by filling with DPBS to keep them from drying out, and then confocal images were taken. Nintedanib drug images were obtained using a Hoechst 33258 filter.

PDGFRα = PDGFRα (Homo sapiens, UniProt P16234); experiment: Competitive binding assay with DNA-tagged kinase and immobilized ligand, qPCR readout, PDGFRα
Method: (§2) This experiment was conducted based on a competitive binding assay for quantitatively measuring the ability of the compound to compete with an immobilized, active site-directed ligand. This assay was performed by combining three components: a DNA-tagged kinase, a ligand immobilized on a bead, and the test compound. If the test compound binds to the kinase and directly or indirectly blocks the ATP site, the number of protein molecules (kinase) that bind to the ligand immobilized on the bead is reduced. […] Therefore, the degree of binding is evaluated based on the amount of fusion protein, bound to the bead, through quantitative PCR (qPCR). Kinase, liganded beads, and test compounds (nintedanib and FAAP were each diluted three-fold to the highest concentration of 10 mM and tested at a total of 11 points) were placed in a test plate and incubated with stirring at room temperature for 1 hour. Thereafter, the beads were resuspended in elution buffer (1x PBS, 0.05% Tween 20, 0.5 µM non-biotinylated affinity ligand) and then incubated with stirring at room temperature for 30 minutes, and the kinase concentration in the eluate was measured by qPCR.

FLT1 = FLT1 (Homo sapiens, UniProt P17948); experiment: Competitive binding assay with DNA-tagged kinase and immobilized ligand, qPCR readout, FLT1
Method: as §2

FGFR1 = FGFR1 (Homo sapiens, UniProt P11362); experiment: Competitive binding assay with DNA-tagged kinase and immobilized ligand, qPCR readout, FGFR1
Method: as §2

FAAP degradation into nintedanib (FAP; at a subsequent time point (after 5 hours), 37°C): completely degraded into nintedanib
FAAP degraded (FAP; within 1.5 hours): 40%
FAAP degraded (FAP; within 5 hours): 80%
stability in the absence of FAP [1]: remained very stable for a long period
Binding affinity of FAAP compared to nintedanib (PDGFRα): 0.47-fold
Binding affinity of FAAP compared to nintedanib (FLT1): 0.2-fold
Binding affinity of FAAP compared to nintedanib (FGFR1): 0.8-fold
Structure (SMILES): COC(=O)c1ccc2c(c1)N(Cc1ccc(NC(=O)[C@@H]3CCCN3C(=O)[C@@H](C)NC(=O)c3ccncc3)cc1)C(=O)/C2=C(\Nc1ccc(N(C)C(=O)CN2CCN(C)CC2)cc1)c1ccccc1
time after treatment until which no fluorescence was shown, then fluorescence intensity increased (U87MG cells; normal group with FAP, 10 µM): 10 h
fluorescence after blocking FAP with the FAP inhibitor OncoFAP (U87MG cells; pretreated with OncoFAP (1 mM) for 30 minutes, then 10 µM FAAP, after 10 hours): no fluorescence appeared

The structures given here were assigned with low confidence; some may be wrong.
